# Experimental data reported in patent US20230355513A1, “PARTICLES INCLUDING CHITOSAN-BILIRUBIN CONJUGATE, AND ORAL PHARMACEUTICAL COMPOSITION INCLUDING SAME” (KOREA ADVANCED INSTITUTE OF SCIENCE AND TECHNOLOGY, priority 2021, published 2023).
# At least one structure is not confirmed: it was looked up by name or label, or the drawing left a doubt.
# Test: Solubility in water and DMSO
# Type: physicochemical
# Settings: Example 6-2 dosing preparation
smiles,measurement,value
"C=CC1=C(C)/C(=C/c2[nH]c(Cc3[nH]c(/C=C4\NC(=O)C(C)=C4C=C)c(C)c3CCC(=O)O)c(CCC(=O)O)c2C)NC1=O [Bilirubin, bilirubin]",dissolution in water of the substance to be administered,not well dissolve din water
